According to the supplement of paper PMC12067093, “Discovery and optimisation of a covalent ligand for TRIM25 and its application to targeted protein ubiquitination” (Chemical Science, 2025):
The other results are listed elsewhere or left out.

Amino acid sequences for entries named in this document (tags omitted). A change or cut given only in a name is not applied to a line headed by its entry.
UniProt Q86X76: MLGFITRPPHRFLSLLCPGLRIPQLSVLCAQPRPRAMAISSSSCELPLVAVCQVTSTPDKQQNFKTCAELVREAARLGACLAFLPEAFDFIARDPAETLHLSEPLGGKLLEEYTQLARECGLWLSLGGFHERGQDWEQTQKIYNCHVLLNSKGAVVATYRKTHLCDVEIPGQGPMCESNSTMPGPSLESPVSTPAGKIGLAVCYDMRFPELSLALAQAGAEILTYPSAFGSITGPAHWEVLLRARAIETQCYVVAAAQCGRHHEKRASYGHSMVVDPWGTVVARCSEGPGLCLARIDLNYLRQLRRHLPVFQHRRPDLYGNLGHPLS
UniProt Q12986: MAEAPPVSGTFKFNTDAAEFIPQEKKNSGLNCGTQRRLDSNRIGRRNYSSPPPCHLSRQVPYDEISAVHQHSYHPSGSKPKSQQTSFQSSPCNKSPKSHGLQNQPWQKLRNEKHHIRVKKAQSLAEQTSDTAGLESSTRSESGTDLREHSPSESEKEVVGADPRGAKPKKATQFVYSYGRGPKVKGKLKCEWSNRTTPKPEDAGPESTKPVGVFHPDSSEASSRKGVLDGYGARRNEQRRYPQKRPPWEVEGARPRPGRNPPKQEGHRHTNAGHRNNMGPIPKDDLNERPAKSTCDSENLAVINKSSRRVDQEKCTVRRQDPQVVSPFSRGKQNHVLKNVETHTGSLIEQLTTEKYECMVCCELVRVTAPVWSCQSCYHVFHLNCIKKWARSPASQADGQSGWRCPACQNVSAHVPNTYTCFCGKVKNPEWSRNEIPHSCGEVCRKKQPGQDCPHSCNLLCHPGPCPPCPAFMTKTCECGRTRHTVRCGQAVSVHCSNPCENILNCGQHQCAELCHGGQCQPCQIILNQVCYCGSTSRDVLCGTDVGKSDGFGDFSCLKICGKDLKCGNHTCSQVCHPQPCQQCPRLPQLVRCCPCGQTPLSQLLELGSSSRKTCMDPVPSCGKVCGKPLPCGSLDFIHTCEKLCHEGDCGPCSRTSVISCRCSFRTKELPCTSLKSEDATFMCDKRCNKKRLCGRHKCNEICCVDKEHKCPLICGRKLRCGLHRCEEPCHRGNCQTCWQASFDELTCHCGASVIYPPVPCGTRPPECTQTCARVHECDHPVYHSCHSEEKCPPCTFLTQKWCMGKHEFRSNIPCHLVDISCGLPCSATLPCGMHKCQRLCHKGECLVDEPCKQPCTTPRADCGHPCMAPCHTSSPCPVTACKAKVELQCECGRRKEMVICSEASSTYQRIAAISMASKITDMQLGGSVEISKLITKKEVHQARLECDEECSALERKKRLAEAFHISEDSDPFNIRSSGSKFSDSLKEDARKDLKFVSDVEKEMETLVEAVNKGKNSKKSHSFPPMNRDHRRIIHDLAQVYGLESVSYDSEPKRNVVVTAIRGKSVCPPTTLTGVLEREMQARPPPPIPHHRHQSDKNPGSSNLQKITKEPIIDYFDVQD
UniProt P14543: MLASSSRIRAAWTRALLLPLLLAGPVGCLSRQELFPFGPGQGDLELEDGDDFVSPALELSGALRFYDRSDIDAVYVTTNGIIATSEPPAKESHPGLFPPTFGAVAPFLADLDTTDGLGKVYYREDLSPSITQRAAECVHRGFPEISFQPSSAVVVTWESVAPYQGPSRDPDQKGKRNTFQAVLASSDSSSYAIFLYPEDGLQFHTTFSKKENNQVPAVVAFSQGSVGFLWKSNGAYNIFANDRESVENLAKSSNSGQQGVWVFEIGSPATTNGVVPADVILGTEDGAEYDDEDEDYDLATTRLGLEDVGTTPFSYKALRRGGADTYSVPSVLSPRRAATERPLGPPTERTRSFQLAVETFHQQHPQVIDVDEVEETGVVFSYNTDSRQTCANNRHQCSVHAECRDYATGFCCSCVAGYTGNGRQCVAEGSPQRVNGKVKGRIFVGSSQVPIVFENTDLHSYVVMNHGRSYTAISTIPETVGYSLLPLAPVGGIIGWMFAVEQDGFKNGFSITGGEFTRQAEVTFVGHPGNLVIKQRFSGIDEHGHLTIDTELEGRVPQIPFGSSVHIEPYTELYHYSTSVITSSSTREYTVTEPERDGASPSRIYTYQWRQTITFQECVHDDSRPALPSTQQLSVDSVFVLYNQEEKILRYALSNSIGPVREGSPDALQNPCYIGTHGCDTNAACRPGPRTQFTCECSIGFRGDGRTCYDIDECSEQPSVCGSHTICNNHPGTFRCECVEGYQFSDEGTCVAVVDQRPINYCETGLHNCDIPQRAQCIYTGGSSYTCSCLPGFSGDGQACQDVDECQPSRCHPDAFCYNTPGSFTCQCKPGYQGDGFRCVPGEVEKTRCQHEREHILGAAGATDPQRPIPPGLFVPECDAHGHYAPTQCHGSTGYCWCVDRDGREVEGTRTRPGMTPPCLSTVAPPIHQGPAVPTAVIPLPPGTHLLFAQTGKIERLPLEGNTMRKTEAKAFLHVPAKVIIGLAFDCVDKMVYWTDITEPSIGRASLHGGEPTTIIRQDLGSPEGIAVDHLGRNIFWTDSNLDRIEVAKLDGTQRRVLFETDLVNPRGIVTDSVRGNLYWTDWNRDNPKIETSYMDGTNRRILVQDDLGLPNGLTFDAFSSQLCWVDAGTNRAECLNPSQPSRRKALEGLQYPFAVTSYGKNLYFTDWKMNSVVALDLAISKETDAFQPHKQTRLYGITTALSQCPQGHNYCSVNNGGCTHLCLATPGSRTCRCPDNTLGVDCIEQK
UniProt Q9UGV2: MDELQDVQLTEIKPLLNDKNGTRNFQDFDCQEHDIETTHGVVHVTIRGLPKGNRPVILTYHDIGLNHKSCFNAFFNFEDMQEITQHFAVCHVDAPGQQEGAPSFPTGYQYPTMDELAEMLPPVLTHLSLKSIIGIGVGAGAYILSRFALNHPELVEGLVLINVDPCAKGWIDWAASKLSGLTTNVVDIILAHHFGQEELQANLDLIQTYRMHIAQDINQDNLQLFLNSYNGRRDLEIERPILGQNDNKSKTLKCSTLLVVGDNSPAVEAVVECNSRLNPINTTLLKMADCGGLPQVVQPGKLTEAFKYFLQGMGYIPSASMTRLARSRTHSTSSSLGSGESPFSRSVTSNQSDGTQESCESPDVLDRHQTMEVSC
UniProt Q8NC96: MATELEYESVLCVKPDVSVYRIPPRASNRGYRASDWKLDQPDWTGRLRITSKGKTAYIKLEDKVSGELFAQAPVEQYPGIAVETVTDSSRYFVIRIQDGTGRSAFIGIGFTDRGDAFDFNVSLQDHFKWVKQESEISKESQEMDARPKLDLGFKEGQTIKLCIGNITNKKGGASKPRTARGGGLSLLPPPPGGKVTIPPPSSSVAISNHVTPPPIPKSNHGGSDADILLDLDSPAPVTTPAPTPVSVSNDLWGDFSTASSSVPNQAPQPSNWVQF
UniProt P49821, whole entry, looked up: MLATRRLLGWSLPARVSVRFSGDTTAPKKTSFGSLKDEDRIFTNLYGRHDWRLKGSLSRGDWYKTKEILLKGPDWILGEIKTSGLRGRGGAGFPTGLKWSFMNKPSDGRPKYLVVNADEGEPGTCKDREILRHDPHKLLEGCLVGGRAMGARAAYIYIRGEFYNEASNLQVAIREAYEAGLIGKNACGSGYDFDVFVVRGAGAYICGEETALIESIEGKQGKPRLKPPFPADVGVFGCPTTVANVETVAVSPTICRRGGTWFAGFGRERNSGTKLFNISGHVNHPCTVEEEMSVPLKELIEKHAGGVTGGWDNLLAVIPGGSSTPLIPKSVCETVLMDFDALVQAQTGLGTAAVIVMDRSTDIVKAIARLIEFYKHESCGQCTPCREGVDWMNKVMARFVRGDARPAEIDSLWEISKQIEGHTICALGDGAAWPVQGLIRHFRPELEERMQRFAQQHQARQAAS
UniProt Q92542, whole entry: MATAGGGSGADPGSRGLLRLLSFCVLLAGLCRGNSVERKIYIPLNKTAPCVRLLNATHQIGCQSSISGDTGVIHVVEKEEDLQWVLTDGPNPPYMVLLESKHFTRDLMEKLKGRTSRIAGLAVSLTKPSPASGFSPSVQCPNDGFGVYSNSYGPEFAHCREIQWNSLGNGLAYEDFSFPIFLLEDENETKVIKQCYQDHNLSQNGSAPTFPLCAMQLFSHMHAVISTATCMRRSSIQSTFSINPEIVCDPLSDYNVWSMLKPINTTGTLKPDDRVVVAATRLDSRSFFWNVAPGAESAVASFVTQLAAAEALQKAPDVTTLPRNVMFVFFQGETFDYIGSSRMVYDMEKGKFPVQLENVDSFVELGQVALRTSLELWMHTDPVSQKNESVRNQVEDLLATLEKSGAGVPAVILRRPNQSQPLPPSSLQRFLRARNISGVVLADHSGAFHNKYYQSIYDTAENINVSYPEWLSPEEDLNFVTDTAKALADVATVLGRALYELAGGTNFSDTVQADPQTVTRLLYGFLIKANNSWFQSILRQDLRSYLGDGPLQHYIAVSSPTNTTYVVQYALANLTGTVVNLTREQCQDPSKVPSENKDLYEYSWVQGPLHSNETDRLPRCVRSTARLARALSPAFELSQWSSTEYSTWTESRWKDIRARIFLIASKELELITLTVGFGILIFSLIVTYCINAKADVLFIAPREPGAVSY
UniProt O43920, whole entry, looked up: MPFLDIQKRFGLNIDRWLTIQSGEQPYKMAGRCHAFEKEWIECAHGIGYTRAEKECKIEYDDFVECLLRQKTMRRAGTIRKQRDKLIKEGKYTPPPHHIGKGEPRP
UniProt Q9NX14, whole entry, looked up: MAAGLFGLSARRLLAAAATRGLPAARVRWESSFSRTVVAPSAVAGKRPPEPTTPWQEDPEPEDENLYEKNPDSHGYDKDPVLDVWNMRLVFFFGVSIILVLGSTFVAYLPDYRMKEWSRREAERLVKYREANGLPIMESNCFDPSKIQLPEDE
UniProt Q8NI08: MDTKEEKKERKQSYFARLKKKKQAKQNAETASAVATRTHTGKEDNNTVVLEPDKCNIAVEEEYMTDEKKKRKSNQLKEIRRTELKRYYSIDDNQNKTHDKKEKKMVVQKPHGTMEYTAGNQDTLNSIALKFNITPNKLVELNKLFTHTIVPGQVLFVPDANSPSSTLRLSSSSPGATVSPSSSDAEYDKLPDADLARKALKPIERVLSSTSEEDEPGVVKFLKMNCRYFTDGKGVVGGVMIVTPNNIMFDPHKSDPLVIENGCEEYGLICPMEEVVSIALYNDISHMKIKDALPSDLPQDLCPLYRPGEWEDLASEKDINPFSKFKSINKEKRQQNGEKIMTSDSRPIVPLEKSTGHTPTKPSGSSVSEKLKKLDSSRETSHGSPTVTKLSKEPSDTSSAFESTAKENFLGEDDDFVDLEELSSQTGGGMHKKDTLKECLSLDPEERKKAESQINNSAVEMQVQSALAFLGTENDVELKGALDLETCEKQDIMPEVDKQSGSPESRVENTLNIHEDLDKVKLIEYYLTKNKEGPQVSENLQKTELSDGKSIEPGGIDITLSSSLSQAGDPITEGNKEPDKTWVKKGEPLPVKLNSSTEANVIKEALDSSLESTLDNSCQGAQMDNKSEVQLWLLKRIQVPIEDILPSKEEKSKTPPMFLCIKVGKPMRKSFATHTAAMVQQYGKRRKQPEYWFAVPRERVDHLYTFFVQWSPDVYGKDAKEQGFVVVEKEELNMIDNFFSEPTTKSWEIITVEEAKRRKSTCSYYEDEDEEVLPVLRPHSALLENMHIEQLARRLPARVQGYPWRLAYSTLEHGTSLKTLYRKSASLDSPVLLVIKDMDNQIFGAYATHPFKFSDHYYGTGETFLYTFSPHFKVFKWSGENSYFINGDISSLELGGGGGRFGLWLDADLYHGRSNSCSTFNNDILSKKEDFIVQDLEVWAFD
UniProt P28331, whole entry, looked up: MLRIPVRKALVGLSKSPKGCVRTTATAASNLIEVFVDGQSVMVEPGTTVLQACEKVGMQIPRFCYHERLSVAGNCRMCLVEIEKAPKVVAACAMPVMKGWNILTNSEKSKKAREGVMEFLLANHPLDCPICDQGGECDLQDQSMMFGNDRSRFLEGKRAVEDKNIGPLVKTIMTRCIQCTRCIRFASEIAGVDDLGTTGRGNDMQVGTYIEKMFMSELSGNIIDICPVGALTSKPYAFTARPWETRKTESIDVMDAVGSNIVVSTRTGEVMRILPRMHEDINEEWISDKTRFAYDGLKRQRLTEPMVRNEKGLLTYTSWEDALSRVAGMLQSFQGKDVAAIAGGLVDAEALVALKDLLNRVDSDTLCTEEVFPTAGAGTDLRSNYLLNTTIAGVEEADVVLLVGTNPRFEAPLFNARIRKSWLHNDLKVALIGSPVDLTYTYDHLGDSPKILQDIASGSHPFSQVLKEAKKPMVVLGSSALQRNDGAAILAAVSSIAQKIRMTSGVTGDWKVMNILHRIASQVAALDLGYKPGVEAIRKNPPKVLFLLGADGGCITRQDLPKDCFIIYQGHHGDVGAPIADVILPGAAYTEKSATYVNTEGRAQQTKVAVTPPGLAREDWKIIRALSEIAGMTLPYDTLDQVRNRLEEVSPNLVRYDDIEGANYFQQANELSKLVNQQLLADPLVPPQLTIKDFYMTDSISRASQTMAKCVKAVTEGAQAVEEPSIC

Compound: CC1Cc2ccccc2N1C(=O)C1CCCN(C1)C(=O)CCl (mixture of isomers) [TRIM25 ligand 11 (diastereomer mixture)]
Test: probe-labelled cysteine peptide fold change vs DMSO (competition) (log2 fold change); higher = less target engagement (more negative = stronger competition)
Details: THP-1, incubation time: 4 h
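Further: competitive chemoproteomic profiling in live THP-1 cells with an iodoacetamide desthiobiotin (IA-DTB) probe, comparing probe-labelled peptide intensities in compound-treated cells against DMSO-treated controls.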

Row | Target | probe-labelled cysteine peptide fold change (10 µM) | probe-labelled cysteine peptide fold change (50 µM)
1 | NIT1_Q86X76_120_ECGLWLSLGGFHER (UniProt Q86X76) | -0.237 | 0.0468
2 | NFX1_Q12986_572_CGNHTCSQVCHPQPCQQCPR (UniProt Q12986) | -0.0882 | 0.169
3 | NF1_P21359_1486_RFFLDIASDCPTSDAVNHSLSFISDGNVLALHR (UniProt P21359) | -0.0766 | -0.145
4 | NIP7_Q9Y221_36_YIGENLQLLVDRPDGTYCFR (UniProt Q9Y221) | 0.178 | 0.26
5 | NF1_P21359_1486_FFLDIASDCPTSDAVNHSLSFISDGNVLALHR (UniProt P21359) | 0.157 | 0.0357
6 | NID1_P14543_425_QCVAEGSPQR (UniProt P14543) | 0.192 | 0.15
7 | NIN_Q8N4C6_1261_LLYEDVSRENDCLQEELR (UniProt Q8N4C6) | 0.085 | -0.121
8 | NEU1_Q99519_230_DGVFCLLSDDHGASWR (UniProt Q99519) | 0.00991 | -0.0341
9 | NGLY1_Q96IV0_74_GAVECLFEMGFEEGETHLIFPK (UniProt Q96IV0) | -0.101 | 0.0423
10 | NDUFAB1_O14561_140_LMCPQEIVDYIADK (UniProt O14561) | -0.0757 | -0.184
11 | NDRG3_Q9UGV2_166_FALNHPELVEGLVLINVDPCAK (UniProt Q9UGV2) | 0.0797 | 0.193
12 | NFAT5_O94916_347_VKPHGFYQACR (UniProt O94916) | -0.0497 | -0.0186
13 | NDUFAF3_Q9BU61_150_GIAVEVQDTPNACATFNFLCHEGR (UniProt Q9BU61) | -0.0181 | 0.159
14 | NISCH_Q9Y2I1_403_SIGSLPCLEHVSLLNNPLSIIPDYR (UniProt Q9Y2I1) | 0.0605 | -0.128
15 | NIT1_Q86X76-2_16_AISSSSCELPLVAVCQVTSTPDK (UniProt Q86X76) | -0.208 | -0.189
16 | NDC80_O14777_342_VELECETIK (UniProt O14777) | 0.165 | 0.339
17 | NEK9_Q8TD19_569_LGLNQCMSGIINHEAYHEVPYTTSFTLAK (UniProt Q8TD19) | 0.0603 | -0.0344
18 | NCF2_P19878_40+45_ICFNIGCMYTILK (UniProt P19878) | -0.255 | -0.17
19 | NFX1_Q12986_730_CEEPCHR (UniProt Q12986) | 0.0901 | 0.247

Row | Target | probe-labelled cysteine peptide fold change (10 µM) | probe-labelled cysteine peptide fold change (50 µM)
20 | NDRG1_Q92597_49_GETITGLLQEFDVQEQDIETLHGSVHVTLCGTPK (UniProt Q92597) | 0.173 | -0.0889
21 | NFXL1_Q6ZNB6_335_CENPCHAGSCQPCPR (UniProt Q6ZNB6) | 0.197 | 0.0241
22 | NF1_P21359_1016_LCQLVEVMMAR (UniProt P21359) | 0.0549 | 0.181
23 | NECTIN2_Q92692_238_ADGVTVTCK (UniProt Q92692) | 0.0565 | 0.103
24 | NECAP1_Q8NC96_12_ATELEYESVLCVKPDVSVYR (UniProt Q8NC96) | 0.0885 | -0.0381
25 | NFIX_Q14938_6_MYSPYCLTQDEFHPFIEALLPHVR (UniProt Q14938) | 0.072 | -0.567
26 | NDUFV1_P49821_382_HESCGQCTPCR (UniProt P49821) | 0.251 | -0.135
27 | NCSTN_Q92542_586_EQCQDPSKVPSENK (UniProt Q92542) | -0.276 | -0.219
28 | NDRG3_Q9UGV2_359_SVTSNQSDGTQESCESPDVLDR (UniProt Q9UGV2) | 0.0132 | 0.0069
29 | NDUFS5_O43920_43_EWIECAHGIGYTR (UniProt O43920) | 0.0135 | -0.0188
30 | NIT1_Q86X76_251+259_AIETQCYVVAAAQCGR (UniProt Q86X76) | 0.553 | 0.575
31 | NDUFB11_Q9NX14_141_YREANGLPIMESNCFDPSK (UniProt Q9NX14) | 0.00525 | -0.313
32 | NDUFV1_P49821_125_YLVVNADEGEPGTCK (UniProt P49821) | 0.121 | 0.00708
33 | NCOA7_Q8NI08_487_GALDLETCEK (UniProt Q8NI08) | -0.182 | -0.181
34 | NID1_P14543_679_EGSPDALQNPCYIGTHGCDTNAACRPGPR (UniProt P14543) | 0.112 | -0.182
35 | NDUFS1_P28331_78_MCLVEIEK (UniProt P28331) | -0.237 | 0.0677
36 | NDUFA8_P51970_88_HCAEPFTEYWTCIDYTGQQLFR (UniProt P51970) | 0.0824 | 0.245
37 | NFKBIE_O00221_345_CLLEGRPEPGR (UniProt O00221) | -0.0407 | 0.153

Nine entries from above, set out differently:

| Row | Target | probe-labelled cysteine peptide fold change (10 µM) | probe-labelled cysteine peptide fold change (50 µM) |
| --- | --- | --- | --- |
| 27 | NCSTN_Q92542_586_EQCQDPSKVPSENK (UniProt Q92542) | -0.276 | -0.219 |
| 28 | NDRG3_Q9UGV2_359_SVTSNQSDGTQESCESPDVLDR (UniProt Q9UGV2) | 0.0132 | 0.0069 |
| 29 | NDUFS5_O43920_43_EWIECAHGIGYTR (UniProt O43920) | 0.0135 | -0.0188 |
| 30 | NIT1_Q86X76_251+259_AIETQCYVVAAAQCGR (UniProt Q86X76) | 0.553 | 0.575 |
| 31 | NDUFB11_Q9NX14_141_YREANGLPIMESNCFDPSK (UniProt Q9NX14) | 0.00525 | -0.313 |
| 32 | NDUFV1_P49821_125_YLVVNADEGEPGTCK (UniProt P49821) | 0.121 | 0.00708 |
| 33 | NCOA7_Q8NI08_487_GALDLETCEK (UniProt Q8NI08) | -0.182 | -0.181 |
| 34 | NID1_P14543_679_EGSPDALQNPCYIGTHGCDTNAACRPGPR (UniProt P14543) | 0.112 | -0.182 |
| 35 | NDUFS1_P28331_78_MCLVEIEK (UniProt P28331) | -0.237 | 0.0677 |
